Results deposited as PubChem BioAssay AID1159579 (Peter MacCallum Cancer Centre, 2015).
Shown is an unselected part of about 2,000 reagents tested. In the full data, 549 (27%) got an active call. 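Some migration ratios are negative; siRNAs with too few cells are inactive whatever their migration ratio.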 The numbers tell different reagents against one gene apart. Not all columns of the deposit are shown. Not stated in the record: the time to read-out.

Aim: 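Follow-up screen seeking modulators of motility in lymphatic endothelial cells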 (follow-up of hits)
Cells: human dermal lymphatic endothelial cells
Reagents: single siRNA against human genes, 25 nM
Measurement: 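Scratch wound imaging measuring area filled by moving cells plus nuclei number, averaged over two wells and scaled to mock-transfected controls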
Reading the numbers: migration relative to mock: higher = more migration into the scratch; mean nuclei count: higher = more cells remaining
Call rule: 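Called active when the migration ratio is 0.6 or lower (impaired) or 1.3 or higher (accelerated), but inactive whenever the mean nuclei count falls under 3300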
Meaning of the calls: active = migration changed (impaired or accelerated); inactive = no migration change, or too few cells

gene	reagent	migration relative to mock	mean nuclei count	call
SYCP1 (synaptonemal complex protein 1)	1	0.83	5625	inactive
SYCP1 (synaptonemal complex protein 1)	2	0.85	5484	inactive
SYCP1 (synaptonemal complex protein 1)	3	0.81	5782	inactive
SYCP1 (synaptonemal complex protein 1)	4	0.74	5344	inactive
SMPX (small muscle protein X-linked)	1	1.12	5090	inactive
SMPX (small muscle protein X-linked)	2	0.96	6266	inactive
SMPX (small muscle protein X-linked)	3	0.92	5288	inactive
SMPX (small muscle protein X-linked)	4	0.86	5215	inactive
CCDC57 (coiled-coil domain containing 57)	1	1.06	6263	inactive
CCDC57 (coiled-coil domain containing 57)	2	1.15	5917	inactive
CCDC57 (coiled-coil domain containing 57)	3	0.96	6368	inactive
CCDC57 (coiled-coil domain containing 57)	4	0.77	5672	inactive
LYVE1 (lymphatic vessel endothelial hyaluronan receptor 1)	1	1.18	6862	inactive
LYVE1 (lymphatic vessel endothelial hyaluronan receptor 1)	2	0.72	6959	inactive
LYVE1 (lymphatic vessel endothelial hyaluronan receptor 1)	3	0.25	3936	active
LYVE1 (lymphatic vessel endothelial hyaluronan receptor 1)	4	0.82	5612	inactive
STYK1 (STY kinase 1)	1	0.82	6234	inactive
STYK1 (STY kinase 1)	2	0.62	5323	inactive
STYK1 (STY kinase 1)	3	0.48	6198	active
STYK1 (STY kinase 1)	4	0.58	7192	active
CORO2B (coronin 2B)	1	1	5034	inactive
CORO2B (coronin 2B)	2	0.82	5005	inactive
CORO2B (coronin 2B)	3	1.02	5933	inactive
CORO2B (coronin 2B)	4	0.86	5092	inactive
RDH11 (retinol dehydrogenase 11)	1	0.2	6992	active
RDH11 (retinol dehydrogenase 11)	2	0.74	6284	inactive
RDH11 (retinol dehydrogenase 11)	3	0.64	5341	inactive
RDH11 (retinol dehydrogenase 11)	4	0.76	6528	inactive
RTKN (rhotekin)	1	0.48	6184	active
RTKN (rhotekin)	2	0.6	5324	active
RTKN (rhotekin)	3	0.74	6182	inactive
RTKN (rhotekin)	4	0.89	5836	inactive
TYRO3 (TYRO3 protein tyrosine kinase)	1	0.46	5280	active
TYRO3 (TYRO3 protein tyrosine kinase)	2	0.94	6893	inactive
TYRO3 (TYRO3 protein tyrosine kinase)	3	0.68	5563	inactive
TYRO3 (TYRO3 protein tyrosine kinase)	4	0.56	5746	active
ZNF319 (zinc finger protein 319)	1	0.82	5346	inactive
ZNF319 (zinc finger protein 319)	2	0.7	5234	inactive
ZNF319 (zinc finger protein 319)	3	0.89	6612	inactive
ZNF319 (zinc finger protein 319)	4	0.68	5967	inactive

Laid out differently: entries from further up
STYK1 (STY kinase 1) #4
- migration relative to mock: 0.58
- mean nuclei count: 7192
- call: active

CORO2B (coronin 2B) #1
- migration relative to mock: 1
- mean nuclei count: 5034
- call: inactive

CORO2B (coronin 2B) #2
- migration relative to mock: 0.82
- mean nuclei count: 5005
- call: inactive

CORO2B (coronin 2B) #3
- migration relative to mock: 1.02
- mean nuclei count: 5933
- call: inactive

CORO2B (coronin 2B) #4
- migration relative to mock: 0.86
- mean nuclei count: 5092
- call: inactive

RDH11 (retinol dehydrogenase 11) #1
- migration relative to mock: 0.2
- mean nuclei count: 6992
- call: active

RDH11 (retinol dehydrogenase 11) #2
- migration relative to mock: 0.74
- mean nuclei count: 6284
- call: inactive

The results go on.
gene	reagent	migration relative to mock	mean nuclei count	call
ACTL8 (actin like 8)	1	0.41	2501	inactive
ACTL8 (actin like 8)	2	1.11	5280	inactive
ACTL8 (actin like 8)	3	0.71	5144	inactive
ACTL8 (actin like 8)	4	0.42	3998	active
YWHAG	1	-0.38	3894	active
YWHAG	2	0.94	5950	inactive
YWHAG	3	1.14	4956	inactive
YWHAG	4	0.64	5972	inactive
PIK3AP1 (phosphoinositide-3-kinase adaptor protein 1)	1	0.62	5250	inactive
PIK3AP1 (phosphoinositide-3-kinase adaptor protein 1)	2	-0.03	3951	active
PIK3AP1 (phosphoinositide-3-kinase adaptor protein 1)	3	0.55	6744	active
PIK3AP1 (phosphoinositide-3-kinase adaptor protein 1)	4	0.92	6347	inactive
PKN2 (protein kinase N2)	1	0.84	4664	inactive
PKN2 (protein kinase N2)	2	0.4	5234	active
PKN2 (protein kinase N2)	3	0.48	5424	active
PKN2 (protein kinase N2)	4	0.56	6008	active
AMHR2 (anti-Mullerian hormone receptor type 2)	1	0.65	4584	inactive
AMHR2 (anti-Mullerian hormone receptor type 2)	2	0.74	5081	inactive
AMHR2 (anti-Mullerian hormone receptor type 2)	3	1.02	6584	inactive
AMHR2 (anti-Mullerian hormone receptor type 2)	4	0.76	6168	inactive
MDH1 (malate dehydrogenase 1)	1	1.02	6648	inactive
MDH1 (malate dehydrogenase 1)	2	0.62	6520	inactive
MDH1 (malate dehydrogenase 1)	3	0.66	5678	inactive
MDH1 (malate dehydrogenase 1)	4	0.44	4755	active
ISL2 (ISL LIM homeobox 2)	1	0.7	6202	inactive
ISL2 (ISL LIM homeobox 2)	2	1.04	6034	inactive
ISL2 (ISL LIM homeobox 2)	3	0.36	4066	active
ISL2 (ISL LIM homeobox 2)	4	0.13	4539	active
